From patent publication US9359298B2, “Cajanine structure analogous compound, preparation method and use” (INSTITUTE OF MEDICINAL BIOTECHNOLOGY, CHINESE ACADEMY OF …, priority 2011, dated 2016)
For at least one compound, name, drawing or mass did not settle the structure.

What was measured:
HCV = experiment: Anti-hepatitis C virus (HCV) activity assay (HCV RNA in Huh7.5 cells); type: cell-based; details: statement in words
Protocol: Inoculate Huh7.5 cells into 96-well plates to a density of 3×10^4 cells/cm^2, culture for 24h, infect the cells with 45 IU/cell HCV supernatant, meanwhile, add drug solutions or solvent control for treatment.

HIV-1 III B virus = experiment: Anti-HIV activity assay (P24 antigen in MT-4 cells); type: cell-based; details: statement in words

CC/C=C/c1cc(O)c(CC=C(C)C)c(OC)c1 [Compound 10h, 2-isopentenyl-3-methoxy-5-[(E)-buten-1-yl]phenol]
anti-HCV viral activity (HCV): stronger anti-HIV, HCV viral activities
anti-HIV viral activity (HIV-1 III B virus): stronger anti-HIV, HCV viral activities
